Laboratory results: US20110171261A1, “IMMUNOGENIC COMPOSITION” (priority 2008, published 2011)
Some results were stated once for a whole list of compounds, not compound by compound. Some ranges recur; such a range may be that of the whole group of compounds.

Target: T1, CCR4 (Homo sapiens, UniProt P51679)
T1 construct: These CD4+CD25^high cells expressed FoxP3 and CCR4; endogenous in cells; host or cells: human CD4+CD25+ Tregs isolated from PBMC of healthy donors
T1 sequence (P51679 1-360): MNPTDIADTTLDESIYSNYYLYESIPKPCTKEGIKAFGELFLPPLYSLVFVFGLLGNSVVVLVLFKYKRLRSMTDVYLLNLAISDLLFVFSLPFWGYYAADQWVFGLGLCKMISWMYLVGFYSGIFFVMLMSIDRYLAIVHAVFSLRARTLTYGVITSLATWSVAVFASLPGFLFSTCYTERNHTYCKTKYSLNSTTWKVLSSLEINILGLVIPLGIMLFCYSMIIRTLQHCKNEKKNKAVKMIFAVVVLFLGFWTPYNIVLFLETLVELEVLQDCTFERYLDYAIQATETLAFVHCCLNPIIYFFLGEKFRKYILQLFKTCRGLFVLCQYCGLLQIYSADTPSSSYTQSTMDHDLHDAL
Experiment: CCL22- and CCL17-mediated chemotaxis of human CD4+CD25+ regulatory T cells
Type: cell-based
Details: 10 nM antagonist, range over the six compounds; for inhibition of Treg migration in response to CCL17: 1.2 nM CCL17, six donors; for inhibition of CCL22-mediated Treg migration: 1.2 nM CCL22, n=6 donors

SMILES	inhibition of Treg migration in response to CCL17	inhibition of CCL22-mediated Treg migration
O=C(C1=C(O)C(=O)N(c2nnc(SCc3ccccc3Cl)s2)C1c1ccc(Cl)c(Cl)c1)c1cc2ccccc2o1 (centres unmarked) [(III)]	35.9-46.4%	29.6-40.1%
CCc1ccc(C2C(C(=O)c3cc4ccccc4o3)=C(O)C(=O)N2c2nnc(SCc3ccccc3F)s2)cc1 (centres unmarked) [(VI)]	35.9-46.4%	29.6-40.1%
O=C(CSc1nc(-c2ccccc2)c(-c2ccccc2)o1)Nc1ccc(S(=O)(=O)Nc2nccs2)cc1 [(XI)]	35.9-46.4%	29.6-40.1%
O=C(C1=C(O)C(=O)N(c2nnc(SCc3ccccc3)s2)C1c1cccs1)c1cc2ccccc2o1 (centres unmarked) [compound (VIII), 4-(1-benzofuran-2-ylcarbonyl)-1-[5-(benzylsulfanyl)-1,3,4-thiadiazol-2-yl]-3-hydroxy-5-(2-thienyl)-1,5-dihydro-2H-pyrrol-2-one]	35.9-46.4%	29.6-40.1%
